According to paper PMC4759627:
These are yes or no findings as the source states them, for the method shown. In cells and extracts the contact can be indirect. Binding can be weak; no strength is given. Tags and fused reporters may be left off the sequences shown.

Sequences of proteins named here, by UniProt entry; tags and fusion partners are left off. A change or cut given only in a name is not applied to a line headed by its entry.
UniProt Q8TCU6: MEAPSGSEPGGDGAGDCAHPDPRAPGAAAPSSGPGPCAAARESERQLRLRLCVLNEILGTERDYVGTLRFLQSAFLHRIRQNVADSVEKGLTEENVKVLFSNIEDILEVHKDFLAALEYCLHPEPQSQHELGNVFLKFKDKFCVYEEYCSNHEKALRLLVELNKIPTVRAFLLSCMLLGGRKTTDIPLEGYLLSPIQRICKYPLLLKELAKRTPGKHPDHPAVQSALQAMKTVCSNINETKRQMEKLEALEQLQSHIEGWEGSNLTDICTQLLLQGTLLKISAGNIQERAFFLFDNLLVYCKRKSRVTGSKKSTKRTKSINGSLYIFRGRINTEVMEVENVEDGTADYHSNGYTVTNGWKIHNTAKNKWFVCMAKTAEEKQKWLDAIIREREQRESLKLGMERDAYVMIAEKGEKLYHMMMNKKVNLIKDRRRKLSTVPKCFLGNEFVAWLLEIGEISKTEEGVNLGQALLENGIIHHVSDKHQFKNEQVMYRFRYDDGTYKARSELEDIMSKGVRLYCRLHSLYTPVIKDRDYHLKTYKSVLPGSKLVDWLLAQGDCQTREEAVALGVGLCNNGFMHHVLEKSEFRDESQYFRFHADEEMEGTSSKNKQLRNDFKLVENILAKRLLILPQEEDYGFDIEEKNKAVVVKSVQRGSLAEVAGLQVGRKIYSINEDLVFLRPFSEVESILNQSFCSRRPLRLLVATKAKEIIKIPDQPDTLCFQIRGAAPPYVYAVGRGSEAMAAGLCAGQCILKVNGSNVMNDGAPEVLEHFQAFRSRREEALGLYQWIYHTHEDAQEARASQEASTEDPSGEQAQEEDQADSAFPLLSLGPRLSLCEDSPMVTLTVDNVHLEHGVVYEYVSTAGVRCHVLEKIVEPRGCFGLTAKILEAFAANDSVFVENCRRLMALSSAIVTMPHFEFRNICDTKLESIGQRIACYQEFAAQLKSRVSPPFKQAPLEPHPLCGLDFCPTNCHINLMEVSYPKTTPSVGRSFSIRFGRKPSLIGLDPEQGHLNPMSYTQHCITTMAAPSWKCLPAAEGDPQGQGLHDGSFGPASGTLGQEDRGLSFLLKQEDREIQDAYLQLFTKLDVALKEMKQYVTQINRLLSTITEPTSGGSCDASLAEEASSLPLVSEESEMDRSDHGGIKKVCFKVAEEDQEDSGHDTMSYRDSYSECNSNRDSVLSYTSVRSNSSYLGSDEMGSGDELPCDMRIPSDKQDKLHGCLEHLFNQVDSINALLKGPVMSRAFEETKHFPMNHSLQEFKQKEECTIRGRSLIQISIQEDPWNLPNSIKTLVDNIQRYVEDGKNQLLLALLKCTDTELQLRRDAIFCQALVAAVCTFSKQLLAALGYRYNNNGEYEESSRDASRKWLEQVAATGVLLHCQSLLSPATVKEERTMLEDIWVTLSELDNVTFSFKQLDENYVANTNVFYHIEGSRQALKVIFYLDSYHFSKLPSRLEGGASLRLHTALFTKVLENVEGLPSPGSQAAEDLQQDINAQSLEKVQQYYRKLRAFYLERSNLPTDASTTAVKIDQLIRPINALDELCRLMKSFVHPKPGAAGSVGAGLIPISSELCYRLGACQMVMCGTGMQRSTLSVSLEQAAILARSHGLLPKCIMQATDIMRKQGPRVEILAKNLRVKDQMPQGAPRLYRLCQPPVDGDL

Target: T1, FLAG-tagged full-length FLII (FLII FL) (UniProt Q13045)
T1 sequence: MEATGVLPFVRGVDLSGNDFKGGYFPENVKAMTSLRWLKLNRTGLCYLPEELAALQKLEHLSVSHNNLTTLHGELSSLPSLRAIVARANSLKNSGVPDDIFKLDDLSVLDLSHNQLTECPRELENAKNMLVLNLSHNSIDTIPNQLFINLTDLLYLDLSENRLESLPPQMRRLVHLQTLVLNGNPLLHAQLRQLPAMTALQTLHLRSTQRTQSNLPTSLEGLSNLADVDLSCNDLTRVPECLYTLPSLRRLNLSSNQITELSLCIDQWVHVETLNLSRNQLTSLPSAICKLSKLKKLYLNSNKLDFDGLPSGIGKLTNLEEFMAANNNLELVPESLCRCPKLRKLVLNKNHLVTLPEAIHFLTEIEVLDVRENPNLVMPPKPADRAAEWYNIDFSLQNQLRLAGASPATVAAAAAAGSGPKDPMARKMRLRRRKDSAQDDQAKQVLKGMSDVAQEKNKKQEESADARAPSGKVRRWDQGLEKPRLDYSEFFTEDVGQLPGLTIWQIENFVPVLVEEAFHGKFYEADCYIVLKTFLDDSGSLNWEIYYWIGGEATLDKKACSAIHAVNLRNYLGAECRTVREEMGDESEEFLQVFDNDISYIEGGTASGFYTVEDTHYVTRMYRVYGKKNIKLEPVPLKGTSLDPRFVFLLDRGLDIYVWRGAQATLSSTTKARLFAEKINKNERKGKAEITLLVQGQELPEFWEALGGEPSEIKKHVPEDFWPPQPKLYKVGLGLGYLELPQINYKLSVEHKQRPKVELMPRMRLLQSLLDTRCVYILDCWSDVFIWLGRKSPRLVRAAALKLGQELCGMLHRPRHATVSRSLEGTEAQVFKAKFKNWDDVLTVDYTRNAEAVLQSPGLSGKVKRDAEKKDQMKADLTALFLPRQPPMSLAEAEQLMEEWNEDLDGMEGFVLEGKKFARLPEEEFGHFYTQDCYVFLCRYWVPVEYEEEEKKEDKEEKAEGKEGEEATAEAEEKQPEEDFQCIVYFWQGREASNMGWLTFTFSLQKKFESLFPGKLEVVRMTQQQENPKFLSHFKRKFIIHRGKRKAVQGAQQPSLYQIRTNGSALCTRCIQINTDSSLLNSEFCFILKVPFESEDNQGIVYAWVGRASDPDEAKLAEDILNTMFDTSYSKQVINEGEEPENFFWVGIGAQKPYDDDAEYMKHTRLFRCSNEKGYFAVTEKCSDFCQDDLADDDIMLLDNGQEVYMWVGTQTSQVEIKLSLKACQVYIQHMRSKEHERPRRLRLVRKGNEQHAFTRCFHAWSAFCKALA
Assay: co-IP; FLAG immunoprecipitation on anti-FLAG M2 affinity gel from HEK293T lysates co-expressing FLAG-tagged FLII (FL or domain mutants) and a GEF, 75 min at 4 °C, 3xFLAG peptide elution, western blot

binding: binds
Substance: Myc-tagged P-Rex1 GEF* (GEF-dead mutant) (from UniProt Q8TCU6)
